Binding data for one molecule are collected here from article doi:10.1101/2024.04.22.590536 (bioRxiv, 2024).

Assay [1] addresses T1, Utp22 fused to the GAL4 DNA binding domain (S. cerevisiae) (UniProt P53254).
T1 sequence: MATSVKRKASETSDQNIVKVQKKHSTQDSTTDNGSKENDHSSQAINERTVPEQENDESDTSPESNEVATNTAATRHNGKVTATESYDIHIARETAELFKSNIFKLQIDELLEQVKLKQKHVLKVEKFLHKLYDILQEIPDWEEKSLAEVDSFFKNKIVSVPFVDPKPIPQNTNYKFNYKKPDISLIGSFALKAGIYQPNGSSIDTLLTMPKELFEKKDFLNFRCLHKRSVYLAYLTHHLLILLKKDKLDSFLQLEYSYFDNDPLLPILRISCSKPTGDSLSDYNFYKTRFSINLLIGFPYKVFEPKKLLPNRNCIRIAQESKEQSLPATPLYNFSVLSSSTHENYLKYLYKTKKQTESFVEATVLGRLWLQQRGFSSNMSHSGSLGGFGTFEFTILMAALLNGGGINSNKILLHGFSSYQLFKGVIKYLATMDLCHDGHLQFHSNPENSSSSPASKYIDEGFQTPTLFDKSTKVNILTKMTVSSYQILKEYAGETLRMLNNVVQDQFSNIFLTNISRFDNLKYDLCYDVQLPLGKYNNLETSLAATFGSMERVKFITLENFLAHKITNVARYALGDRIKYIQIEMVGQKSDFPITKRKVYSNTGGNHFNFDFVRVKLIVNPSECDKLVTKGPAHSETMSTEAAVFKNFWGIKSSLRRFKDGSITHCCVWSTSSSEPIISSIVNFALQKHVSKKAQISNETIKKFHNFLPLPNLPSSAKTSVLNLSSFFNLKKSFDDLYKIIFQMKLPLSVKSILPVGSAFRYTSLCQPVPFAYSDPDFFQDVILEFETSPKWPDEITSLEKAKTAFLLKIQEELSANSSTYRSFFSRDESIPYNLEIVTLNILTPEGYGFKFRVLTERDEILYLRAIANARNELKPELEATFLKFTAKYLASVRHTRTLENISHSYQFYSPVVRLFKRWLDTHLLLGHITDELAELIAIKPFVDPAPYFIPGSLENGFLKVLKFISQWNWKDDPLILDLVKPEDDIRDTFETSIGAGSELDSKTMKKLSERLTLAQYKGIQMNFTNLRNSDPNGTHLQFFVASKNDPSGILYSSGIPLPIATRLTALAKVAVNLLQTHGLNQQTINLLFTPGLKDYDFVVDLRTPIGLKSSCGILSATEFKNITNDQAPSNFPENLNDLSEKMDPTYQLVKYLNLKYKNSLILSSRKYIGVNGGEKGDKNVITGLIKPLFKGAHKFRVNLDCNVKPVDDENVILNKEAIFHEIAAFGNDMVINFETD
Nature of the assay: two-hybrid.

In assay [2] the target is T2, Ifh1 fused to the GAL4 DNA binding domain (S. cerevisiae) (UniProt P39520).
T2 sequence: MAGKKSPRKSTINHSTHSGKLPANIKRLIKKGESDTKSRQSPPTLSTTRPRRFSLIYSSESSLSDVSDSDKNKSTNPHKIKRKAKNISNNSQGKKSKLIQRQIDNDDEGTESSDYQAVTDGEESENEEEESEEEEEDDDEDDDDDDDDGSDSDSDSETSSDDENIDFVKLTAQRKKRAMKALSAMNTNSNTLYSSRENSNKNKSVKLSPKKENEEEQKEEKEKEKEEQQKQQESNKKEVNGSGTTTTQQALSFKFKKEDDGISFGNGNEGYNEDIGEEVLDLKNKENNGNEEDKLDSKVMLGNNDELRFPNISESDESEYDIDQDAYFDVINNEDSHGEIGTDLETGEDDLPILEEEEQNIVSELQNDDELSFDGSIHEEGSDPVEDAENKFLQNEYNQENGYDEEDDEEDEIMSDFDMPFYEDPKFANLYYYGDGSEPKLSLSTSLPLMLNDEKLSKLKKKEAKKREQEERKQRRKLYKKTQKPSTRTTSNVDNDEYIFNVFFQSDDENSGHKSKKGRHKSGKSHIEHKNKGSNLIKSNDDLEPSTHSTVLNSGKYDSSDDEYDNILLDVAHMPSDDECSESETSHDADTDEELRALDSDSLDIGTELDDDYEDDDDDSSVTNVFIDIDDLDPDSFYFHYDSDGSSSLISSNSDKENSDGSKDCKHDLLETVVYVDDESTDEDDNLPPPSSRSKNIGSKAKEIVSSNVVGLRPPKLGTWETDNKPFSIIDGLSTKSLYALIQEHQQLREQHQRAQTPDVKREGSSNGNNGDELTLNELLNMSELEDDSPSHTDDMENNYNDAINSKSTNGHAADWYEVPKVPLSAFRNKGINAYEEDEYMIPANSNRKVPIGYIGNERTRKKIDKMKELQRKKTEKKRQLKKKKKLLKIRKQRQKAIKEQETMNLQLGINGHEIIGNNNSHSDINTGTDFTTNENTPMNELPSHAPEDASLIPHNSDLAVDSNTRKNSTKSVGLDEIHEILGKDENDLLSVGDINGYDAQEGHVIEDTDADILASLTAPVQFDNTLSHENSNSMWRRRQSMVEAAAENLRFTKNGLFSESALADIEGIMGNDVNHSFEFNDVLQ
The assay can be described thus: two-hybrid.

Results are given in words; binding and its absence hold for the method and conditions named. Some binding calls cover weakened binding; strength is not graded here. Tags and fused reporters may be left off the sequences shown.

B1: Stm1 fused to the GAL4 activation domain (protein, UniProt P39015 1-273)
chain: MSNPFDLLGNDVEDADVVVLPPKEIVKSNTSSKKADVPPPSADPSKARKNRPRPSGNEGAIRDKTAGRRNNRSKDVTDSATTKKSNTRRATDRHSRTGKTDTKKKVNQGWGDDKKELSAEKEAQADAAAEIAEDAAEAEDAGKPKTAQLSLQDYLNQQANNQFNKVPEAKKVELDAERIETAEKEAYVPATKVKNVKSKQLKTKEYLEFDATFVESNTRKNFGDRNNNSRNNFNNRRGGRGARKGNNTANATNSANTVQKNRNIDVSNLPSLA
As to B1, the binding entry in assay [1] and in assay [2] was “binds” in each case.
